In patent publication US20080105961A1, “Ligands of the Molecule Fit (Agt-121) and their Pharmaceutical Use” (priority 2004, published 2008):
No constants are given. Whether binding was seen depends on the method and setting. Some binding calls cover weakened binding; strength is not graded here.

Amino acid sequences for entries named in this document (tags omitted).
UniProt O95782: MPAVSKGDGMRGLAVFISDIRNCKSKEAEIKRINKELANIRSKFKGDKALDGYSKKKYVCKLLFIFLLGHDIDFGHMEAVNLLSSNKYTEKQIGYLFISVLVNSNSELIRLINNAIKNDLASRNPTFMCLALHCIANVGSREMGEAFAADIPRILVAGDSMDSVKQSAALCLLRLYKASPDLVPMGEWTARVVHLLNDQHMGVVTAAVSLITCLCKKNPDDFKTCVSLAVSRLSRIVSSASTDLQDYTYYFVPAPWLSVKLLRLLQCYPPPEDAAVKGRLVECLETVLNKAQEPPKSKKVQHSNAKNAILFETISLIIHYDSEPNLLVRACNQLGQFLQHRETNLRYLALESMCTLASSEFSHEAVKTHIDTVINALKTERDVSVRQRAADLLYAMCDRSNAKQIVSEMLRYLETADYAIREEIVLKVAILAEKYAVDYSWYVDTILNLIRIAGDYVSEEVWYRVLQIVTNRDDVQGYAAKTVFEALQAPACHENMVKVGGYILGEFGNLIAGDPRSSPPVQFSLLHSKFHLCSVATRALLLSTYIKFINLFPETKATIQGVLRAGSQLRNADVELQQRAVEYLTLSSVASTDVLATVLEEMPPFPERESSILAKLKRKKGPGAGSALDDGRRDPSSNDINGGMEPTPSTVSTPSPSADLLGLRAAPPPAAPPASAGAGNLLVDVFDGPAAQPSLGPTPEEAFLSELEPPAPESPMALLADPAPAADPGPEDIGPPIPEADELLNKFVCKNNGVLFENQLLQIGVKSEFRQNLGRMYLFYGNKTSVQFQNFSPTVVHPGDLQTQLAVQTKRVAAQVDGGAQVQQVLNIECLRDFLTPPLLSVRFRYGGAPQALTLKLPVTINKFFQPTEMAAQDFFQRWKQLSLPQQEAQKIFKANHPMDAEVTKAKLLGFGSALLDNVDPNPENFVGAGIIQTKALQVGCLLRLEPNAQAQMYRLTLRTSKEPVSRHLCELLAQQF
UniProt O94973: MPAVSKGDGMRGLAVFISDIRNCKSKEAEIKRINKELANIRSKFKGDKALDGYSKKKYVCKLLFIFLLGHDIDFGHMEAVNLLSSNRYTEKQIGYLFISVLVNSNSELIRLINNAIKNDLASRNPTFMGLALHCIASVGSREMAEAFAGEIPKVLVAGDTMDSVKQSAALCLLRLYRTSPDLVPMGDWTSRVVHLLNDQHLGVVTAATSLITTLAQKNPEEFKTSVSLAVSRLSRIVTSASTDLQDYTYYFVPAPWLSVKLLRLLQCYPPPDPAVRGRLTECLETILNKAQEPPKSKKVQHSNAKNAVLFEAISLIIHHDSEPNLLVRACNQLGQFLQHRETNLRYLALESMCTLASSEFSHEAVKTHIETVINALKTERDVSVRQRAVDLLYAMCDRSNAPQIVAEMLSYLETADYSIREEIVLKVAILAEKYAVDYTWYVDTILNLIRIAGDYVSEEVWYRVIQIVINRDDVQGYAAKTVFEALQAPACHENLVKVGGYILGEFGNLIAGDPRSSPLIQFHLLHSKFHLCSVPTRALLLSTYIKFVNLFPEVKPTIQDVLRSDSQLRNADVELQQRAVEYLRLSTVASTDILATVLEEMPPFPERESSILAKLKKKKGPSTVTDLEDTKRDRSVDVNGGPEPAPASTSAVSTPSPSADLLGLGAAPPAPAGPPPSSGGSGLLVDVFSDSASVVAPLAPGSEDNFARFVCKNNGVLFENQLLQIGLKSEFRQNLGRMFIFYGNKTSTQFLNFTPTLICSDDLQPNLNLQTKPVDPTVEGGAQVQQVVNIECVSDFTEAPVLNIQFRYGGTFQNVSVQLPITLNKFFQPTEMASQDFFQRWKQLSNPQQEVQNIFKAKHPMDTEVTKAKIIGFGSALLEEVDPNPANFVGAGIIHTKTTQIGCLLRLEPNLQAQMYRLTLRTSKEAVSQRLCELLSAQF
UniProt P49407: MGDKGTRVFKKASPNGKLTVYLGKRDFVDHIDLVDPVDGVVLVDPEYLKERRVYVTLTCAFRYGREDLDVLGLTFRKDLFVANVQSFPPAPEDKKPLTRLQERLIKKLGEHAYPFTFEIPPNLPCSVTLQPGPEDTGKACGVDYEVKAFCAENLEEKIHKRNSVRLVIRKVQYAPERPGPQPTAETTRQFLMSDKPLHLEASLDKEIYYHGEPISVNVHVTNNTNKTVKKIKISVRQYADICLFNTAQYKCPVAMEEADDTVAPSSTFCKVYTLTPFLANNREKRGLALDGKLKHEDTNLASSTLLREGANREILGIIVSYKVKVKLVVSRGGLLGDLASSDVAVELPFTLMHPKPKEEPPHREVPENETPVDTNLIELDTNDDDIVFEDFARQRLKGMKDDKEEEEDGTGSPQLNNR
UniProt P32121: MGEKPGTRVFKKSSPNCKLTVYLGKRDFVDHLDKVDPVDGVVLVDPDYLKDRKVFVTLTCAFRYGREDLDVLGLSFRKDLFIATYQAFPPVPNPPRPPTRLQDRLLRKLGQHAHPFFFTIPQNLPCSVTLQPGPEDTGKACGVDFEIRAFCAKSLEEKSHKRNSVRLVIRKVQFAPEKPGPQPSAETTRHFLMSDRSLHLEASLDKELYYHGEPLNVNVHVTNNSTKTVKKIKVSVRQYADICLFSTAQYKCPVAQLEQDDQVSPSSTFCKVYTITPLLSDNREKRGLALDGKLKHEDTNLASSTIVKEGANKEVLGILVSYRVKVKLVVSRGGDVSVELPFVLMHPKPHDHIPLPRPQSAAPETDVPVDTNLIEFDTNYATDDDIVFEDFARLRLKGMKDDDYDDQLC
UniProt Q99963: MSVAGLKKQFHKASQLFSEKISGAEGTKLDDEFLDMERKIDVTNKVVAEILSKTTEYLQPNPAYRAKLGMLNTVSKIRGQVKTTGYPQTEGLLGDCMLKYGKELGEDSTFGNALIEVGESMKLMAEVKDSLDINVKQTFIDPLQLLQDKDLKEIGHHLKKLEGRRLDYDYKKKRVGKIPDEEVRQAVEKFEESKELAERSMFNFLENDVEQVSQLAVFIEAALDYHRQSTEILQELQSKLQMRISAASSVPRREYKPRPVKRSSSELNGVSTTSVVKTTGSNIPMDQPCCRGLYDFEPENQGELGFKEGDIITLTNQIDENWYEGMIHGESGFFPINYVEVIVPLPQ

Legend:
[1] = target: Adapter-related protein complex 2 α-1 subunit (human) (UniProt O95782); assay: yeast two-hybrid
[2] = target: Adapter-related protein complex 2, α-2 subunit (human) (UniProt O94973); assay: yeast two-hybrid
Beta-arrestin 1 (human) [3] = target: Beta-arrestin 1 (human) (UniProt P49407); assay: yeast two-hybrid
Beta-arrestin 2 (human) [4] = target: Beta-arrestin 2 (human) (UniProt P32121); assay: yeast two-hybrid
[5] = target: SH3GL3; endophilin 3 (human) (UniProt Q99963); assay: yeast two-hybrid
[6] = target: Adapter-related protein complex 2, α-2 subunit (human) (UniProt O94973); assay: yeast two-hybrid screen of a human brain cDNA library (1 clone)
Beta-arrestin 1 (human) [7] = target: Beta-arrestin 1 (human) (UniProt P49407); assay: as above
Beta-arrestin 2 (human) [8] = target: Beta-arrestin 2 (human) (UniProt P32121); assay: yeast two-hybrid screen of a human brain cDNA library (2 clones)
[9] = target: Adapter-related protein complex 2 α-1 subunit (human) (UniProt O95782); assay: yeast two-hybrid screen of a human brain cDNA library (8 clones)
[10] = target: SH3GL3; endophilin 3 (human) (UniProt Q99963); assay: yeast two-hybrid screen of a human brain cDNA library (7 clones; rows listed from highest to lowest interacting strength)
[11] = target: SH3GL3; endophilin 3 (human) (UniProt Q99963); assay: yeast two-hybrid screen of a human brain cDNA library (2 clones)

Measured: binding

B1: FIT-NP (FIT N-terminal plus proline-rich region), yeast two-hybrid bait (protein, not shown: small tags and cut ends)
chain: MMEGLKKRTRKAFGIRKKEKDTDSTGSPDRDGMQPSPHELPYHSKAECAREGGKKASKKSNGAPNGFYAEIDWERYNSPELDEEGYSIRPEEPGSTKGKHFYSSSESEEEEESHKKFNIKIKPLQSKDILKNAATVDELKASIGNIALSPSPVRKSPRRSPGAIKRNLSSEEVARPRRSTPTPELTSKKPLDDTLALAPLFGPPLESAFDGHKTEVLLDQPEIWGSGQPVNPSMESPKLARPFPTGTPPPLPPKTVPATPPRTGSPLTVATGNDQAATEAKIEKPPSISDLDSIFGPVLSPKSVAVNTEETWVHFSDASPEHVTPELTPREKVVTPPAASDIPADSPTPGPPGPPGSAGPPGPPGPRNVPSPLNLEEVQKKVAEQTFIKDDYLETLSSPKECGLGQRETPPPPPPPTYRTVVSSPGPGSGSGTGTASGASSPARPATPLVPCSCSTPPPPPPRPPSRPKLPPGKPGVGDVSRPFSPPIHSSSPPPIAPL
binds: [1] | [2] | Beta-arrestin 1 (human) [3] | Beta-arrestin 2 (human) [4] | [5] | [6] | Beta-arrestin 1 (human) [7] | Beta-arrestin 2 (human) [8] | [9] | [10]

B2: FIT-PR (FIT proline-rich region), yeast two-hybrid bait (protein, not shown: small tags and cut ends)
chain: RPFPTGTPPPLPPKTVPATPPRTGSPLTVATGNDQAATEAKIEKPPSISDLDSIFGPVLSPKSVAVNTEETWVHFSDASPEHVTPELTPREKVVTPPAASDIPADSPTPGPPGPPGSAGPPGPPGPRNVPSPLNLEEVQKKVAEQTFIKDDYLETLSSPKECGLGQRATPPPPPPPTYRTVVSSPGPGSGSGTGTASGASSPARPATPLVPCSCSTPPPPPPRPPSRPKLPPGKPGVGDVSRPFSPPIHSSSPPPIAPL
binds: [5] | [11]
